In this experiment the target is C-X-C motif chemokine receptor 4 (mouse (endogenous in MEPM cells)) (UniProt P70658). In words: co-IP; anti-CXCR4 coprecipitates from MEPM cell lysate (Pierce IP Lysis Buffer, 800 ug protein, Protein A/G beads, antibody overnight at 4 °C, four washes), immunoblot with anti-RAC1, anti-CDC42, anti-RHOA. In general terms: In western blotting, separated proteins are transferred to a membrane and probed.

Protein sequences, listed by entry. Tags and fused reporters are not part of them.
UniProt P70658: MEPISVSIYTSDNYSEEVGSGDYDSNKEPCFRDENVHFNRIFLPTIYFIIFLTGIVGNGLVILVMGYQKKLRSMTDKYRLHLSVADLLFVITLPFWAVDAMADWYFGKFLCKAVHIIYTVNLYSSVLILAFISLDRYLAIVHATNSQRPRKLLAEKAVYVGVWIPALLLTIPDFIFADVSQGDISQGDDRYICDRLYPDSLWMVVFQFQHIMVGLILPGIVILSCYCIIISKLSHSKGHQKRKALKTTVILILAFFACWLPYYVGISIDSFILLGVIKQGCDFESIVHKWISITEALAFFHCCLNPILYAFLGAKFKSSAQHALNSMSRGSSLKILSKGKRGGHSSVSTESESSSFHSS
UniProt P60766: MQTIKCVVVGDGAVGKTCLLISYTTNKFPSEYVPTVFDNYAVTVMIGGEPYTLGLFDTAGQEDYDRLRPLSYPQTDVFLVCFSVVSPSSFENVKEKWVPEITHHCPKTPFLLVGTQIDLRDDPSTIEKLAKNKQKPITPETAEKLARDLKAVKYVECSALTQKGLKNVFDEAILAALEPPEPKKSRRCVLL
UniProt Q9QUI0: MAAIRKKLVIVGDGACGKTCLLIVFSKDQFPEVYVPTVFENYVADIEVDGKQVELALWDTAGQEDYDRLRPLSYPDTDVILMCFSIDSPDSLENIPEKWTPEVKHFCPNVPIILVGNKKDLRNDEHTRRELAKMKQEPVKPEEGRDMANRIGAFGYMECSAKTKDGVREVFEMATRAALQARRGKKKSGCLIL

Results are given in words; binding and its absence hold for the method and conditions named. In cells and extracts the contact can be indirect. Some binding calls cover weakened binding; strength is not graded here.

With “cell division cycle 42 (from UniProt P60766 1-191)”, the binding entry was “binds”. As for “ras homolog family member A (from UniProt Q9QUI0 1-193)”, the binding entry is “binds”.
